Data: US20260183429A1, “COMPOSITIONS FOR MODULATING ACETYLATED TUBULIN LEVELS AND METHODS THEREOF” (THE TRUSTEES OF COLUMBIA UNIVERSITY IN THE CITY OF NEW YORK, priority 2023, published 2026)
Results are given in words; binding and its absence hold for the method and conditions named. For part of these data: Binding seen in cells or lysates may run through a third protein. Some results given as binding are weak or reduced against the parent protein; the word gives no strength. For part of these data: Sequences can lack the tags named with a protein.

Protein sequences, listed by entry. Tags and fused reporters are not part of them.
UniProt Q8BG51: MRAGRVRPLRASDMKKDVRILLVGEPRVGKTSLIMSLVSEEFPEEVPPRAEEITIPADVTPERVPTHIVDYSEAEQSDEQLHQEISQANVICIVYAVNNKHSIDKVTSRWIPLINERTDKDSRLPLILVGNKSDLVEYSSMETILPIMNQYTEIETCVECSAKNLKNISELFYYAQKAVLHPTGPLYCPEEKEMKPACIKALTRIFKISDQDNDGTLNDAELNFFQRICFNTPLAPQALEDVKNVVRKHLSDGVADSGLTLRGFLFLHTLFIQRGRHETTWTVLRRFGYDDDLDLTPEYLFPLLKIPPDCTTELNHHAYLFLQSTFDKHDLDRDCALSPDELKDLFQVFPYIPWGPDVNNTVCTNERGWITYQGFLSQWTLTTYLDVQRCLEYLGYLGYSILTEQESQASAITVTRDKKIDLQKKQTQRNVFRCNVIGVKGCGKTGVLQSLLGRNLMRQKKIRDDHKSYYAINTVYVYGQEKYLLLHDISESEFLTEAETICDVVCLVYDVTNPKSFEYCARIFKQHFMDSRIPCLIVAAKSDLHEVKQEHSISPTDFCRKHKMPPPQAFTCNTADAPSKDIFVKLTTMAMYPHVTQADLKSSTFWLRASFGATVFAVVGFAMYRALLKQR
UniProt Q5SQI0: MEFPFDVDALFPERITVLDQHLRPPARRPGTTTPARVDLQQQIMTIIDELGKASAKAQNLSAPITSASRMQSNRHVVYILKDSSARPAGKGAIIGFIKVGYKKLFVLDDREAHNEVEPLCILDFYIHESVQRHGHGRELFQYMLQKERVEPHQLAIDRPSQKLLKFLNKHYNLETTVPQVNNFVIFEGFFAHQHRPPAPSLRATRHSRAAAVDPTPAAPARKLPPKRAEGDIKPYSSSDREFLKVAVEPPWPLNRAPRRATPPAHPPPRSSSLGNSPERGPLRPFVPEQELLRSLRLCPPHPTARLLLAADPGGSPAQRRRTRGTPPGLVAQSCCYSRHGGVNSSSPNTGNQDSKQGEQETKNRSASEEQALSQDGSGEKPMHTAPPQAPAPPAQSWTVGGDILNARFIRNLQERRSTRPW
UniProt Q8K341: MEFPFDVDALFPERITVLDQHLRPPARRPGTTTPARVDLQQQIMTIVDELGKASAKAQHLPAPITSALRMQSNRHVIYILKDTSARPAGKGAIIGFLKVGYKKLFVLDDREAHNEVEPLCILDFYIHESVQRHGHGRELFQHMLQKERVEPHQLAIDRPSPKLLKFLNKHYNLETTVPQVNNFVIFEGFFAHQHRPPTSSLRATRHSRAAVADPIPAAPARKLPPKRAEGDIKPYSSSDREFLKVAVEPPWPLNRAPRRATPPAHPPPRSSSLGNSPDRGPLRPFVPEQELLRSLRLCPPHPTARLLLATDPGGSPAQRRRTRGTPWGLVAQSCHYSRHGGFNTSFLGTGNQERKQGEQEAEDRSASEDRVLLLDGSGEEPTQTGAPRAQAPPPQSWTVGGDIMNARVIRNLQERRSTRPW

Assays:
Myc-MFN2 WT [1] = target: T1, Myc-MFN2 WT (UniProt Q80U63); assay: co-immunoprecipitation, cells overexpressing Myc-MFN2 alone
T1 sequence (looked up): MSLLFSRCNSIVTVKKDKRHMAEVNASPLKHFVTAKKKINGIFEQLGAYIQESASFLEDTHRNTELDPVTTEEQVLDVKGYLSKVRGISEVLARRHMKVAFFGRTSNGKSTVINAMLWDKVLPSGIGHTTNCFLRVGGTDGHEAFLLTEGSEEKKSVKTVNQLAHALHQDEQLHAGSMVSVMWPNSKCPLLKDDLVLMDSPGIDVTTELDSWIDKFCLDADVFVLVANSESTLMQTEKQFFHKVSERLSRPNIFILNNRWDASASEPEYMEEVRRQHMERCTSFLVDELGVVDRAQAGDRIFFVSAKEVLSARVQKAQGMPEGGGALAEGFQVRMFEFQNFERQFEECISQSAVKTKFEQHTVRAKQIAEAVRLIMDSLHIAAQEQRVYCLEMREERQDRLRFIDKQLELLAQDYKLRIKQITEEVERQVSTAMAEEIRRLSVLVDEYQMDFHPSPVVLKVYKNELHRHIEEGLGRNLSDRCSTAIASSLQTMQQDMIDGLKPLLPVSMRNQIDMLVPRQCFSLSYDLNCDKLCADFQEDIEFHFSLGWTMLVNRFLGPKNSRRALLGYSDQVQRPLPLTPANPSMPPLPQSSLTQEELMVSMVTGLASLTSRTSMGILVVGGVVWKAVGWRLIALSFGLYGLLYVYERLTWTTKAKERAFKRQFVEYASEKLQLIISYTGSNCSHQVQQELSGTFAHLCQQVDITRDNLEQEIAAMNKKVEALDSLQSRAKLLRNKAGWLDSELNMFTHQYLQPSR

Myc-MFN2 WT [2] = target: T1, Myc-MFN2 WT; assay: immunoprecipitation and immunoblot in HEK293T cells, FIG. 7K lower panel
[3] = target: endogenous Miro1 in WT mouse embryonic fibroblasts (MEFs) (mouse) (UniProt Q8BG51); assay: proximity ligation assay in WT MEFs

| binding (Myc-MFN2 WT [1]) | binding (Myc-MFN2 WT [2]) | binding [3] | Substance |
| --- | --- | --- | --- |
| binds | binds | – | endogenous ATAT1 in HEK293T cells (from UniProt Q5SQI0 1-421) (enzyme) |
| – | – | binds | endogenous ATAT1 in WT mouse embryonic fibroblasts (MEFs) (from UniProt Q8K341 1-421) (enzyme) |
